The values that follow come from PubChem BioAssay AID328 (DTP/NCI, 2004).

For the experiment, the system named is BDF1 mice, P388 leukemia ip, median survival T/C. In words: NCI In Vivo Anticancer Drug Screen. Data for tumor model P388 Leukemia (intraperitoneal) in B6D2F1 (BDF1) mice. The following applies: T/C endpoint: median survival time, higher T/C = longer survival. In a few lines:
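T/C = treated-group survival ÷ vehicle-control survival; tumour transplanted into mice before dosing.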

Where [1] appears, read: dose: 50.0 mg/kg/injection, schedule: Q01DX009 (ip), vehicle: saline with Tween-80.
Where [2] appears, read: dose: 12.5 mg/kg/injection, schedule: Q01DX009 (ip), vehicle: saline.
The mark [3] stands for this setting: dose: 400.0 mg/kg/injection, schedule: Q04DX003 (ip), vehicle: saline.
Setting [4] is: dose: 400.0 mg/kg/injection, schedule: Q01DX009 (ip), vehicle: saline with Tween-80.
[5] abbreviates: dose: 200.0 mg/kg/injection, schedule: Q01DX009 (ip), vehicle: saline with Tween-80.
[6] abbreviates: dose: 400.0 mg/kg/injection, schedule: Q04DX003 (ip), vehicle: saline with Tween-80.

The list is a part of this screen's results and no random one: it gathers tests that were run many times, whatever their T/C, doses with no T/C, and many T/C values between a quarter and a half above the control. Other doses and runs of a compound stand elsewhere. T/C gives the treated animals as a percentage of the vehicle group. Some doses have a count of surviving animals in place of a T/C: the source files T/C as zero there, which appears to mark a toxic dose or a test without result, not a measured value. Some survivor counts are full or nearly so, which does not show that the dose was tolerated: survival well below the control is almost never listed, so the zero probably covers shortened survival too. Counts of survivors are from the toxicity check (mostly the fifth day) where no day follows; animals may have died later. Schedule codes are those of the source, taken here to give the interval after Q, in days (D) or hours (H), and the number of doses after X. Where survival is the endpoint, the PubChem record calls one and a half times the control and up active, and a quarter to a half above the control has no call in these data; cut-offs in other NCI protocols can differ. Some T/C values carry the count of animals alive at the toxicity check (mostly the fifth day); where none is given, no animal had died by that day.

As for `O=C1OC(=O)C2C3CCC(O3)C12` (stereo not given), the survivor count reads like this: (dose: 3.12 mg/kg/injection, schedule: Q01DX009 (ip), vehicle: saline) 0 of 6; (dose: 10.5 mg/kg/injection, schedule: Q01DX001 (ip), vehicle: Klucel (hydroxypropylcellulose) (HPC)) 0 of 6; (dose: 10.5 mg/kg/injection, schedule: Q01DX001 (ip), vehicle: saline) 1 of 6; (dose: 11.0 mg/kg/injection, schedule: Q04DX003 (ip), vehicle: saline) 3 of 6; (dose: 16.0 mg/kg/injection, schedule: Q04DX003 (ip), vehicle: saline) 1 of 6; (dose: 21.0 mg/kg/injection, schedule: Q01DX001 (ip), vehicle: saline) 0 of 6.
`O=c1[nH]cnc2c(Cl)c(C(Cl)(Cl)Cl)nn12` (tested in a mixture with another compound): the survivor count under setting [1] is listed as 6 of 6.
As to `CC1(C)CC(=O)c2ccccc21`, the survivor count is, setting by setting: under setting [2], 6 of 6; (dose: 200.0 mg/kg/injection, schedule: Q01DX009 (ip), vehicle: saline) 6 of 6; (dose: 300.0 mg/kg/injection, schedule: Q01DX009 (ip), vehicle: saline) 5 of 6; under setting [3], 2 of 6.
As for `CC(=O)OC1C(CO)OC2C1Oc1nc(=N)c(F)cn12` (stereo not given), the T/C runs as follows: (dose: 0.39 mg/kg/injection, schedule: Q01DX009 (ip), vehicle: saline) 130 % of control; (dose: 0.78 mg/kg/injection, schedule: Q01DX009 (ip), vehicle: saline) 141 % of control. For the same compound, the survivor count reads like this: (dose: 6.25 mg/kg/injection, schedule: Q01DX009 (ip), vehicle: saline) 6 of 6; under setting [2], 6 of 6; (dose: 25.0 mg/kg/injection, schedule: Q01DX009 (ip), vehicle: saline) 6 of 6; (dose: 50.0 mg/kg/injection, schedule: Q01DX009 (ip), vehicle: saline) 6 of 6.
Regarding `C1O[C@@H]1[C@H]1CO1`, for the setting “dose: 16.5 mg/kg/injection, schedule: Q01DX009 (ip), vehicle: saline”, the T/C was 136 % of control. Besides, the survivor count reads like this: (dose: 100.0 mg/kg/injection, schedule: Q04DX003 (ip), vehicle: saline) 0 of 6; (dose: 200.0 mg/kg/injection, schedule: Q04DX003 (ip), vehicle: saline) 0 of 6; under setting [3], 0 of 6.
As for `CC(=O)Nc1cc2c(cc1[N+](=O)[O-])-c1ccc([N+](=O)[O-])cc1C2`, the survivor count is 6 of 6 (dose: 50.0 mg/kg/injection, schedule: Q01DX009 (ip), vehicle: Klucel (hydroxypropylcellulose) (HPC)); 6 of 6 (dose: 100.0 mg/kg/injection, schedule: Q01DX009 (ip), vehicle: Klucel (hydroxypropylcellulose) (HPC)); 6 of 6 (dose: 100.0 mg/kg/injection, schedule: Q04DX003 (ip), vehicle: Klucel (hydroxypropylcellulose) (HPC)); 6 of 6 (dose: 200.0 mg/kg/injection, schedule: Q04DX003 (ip), vehicle: Klucel (hydroxypropylcellulose) (HPC)); 6 of 6 (dose: 400.0 mg/kg/injection, schedule: Q04DX003 (ip), vehicle: Klucel (hydroxypropylcellulose) (HPC)).
For `CC1CCCCN1CCNc1ccc(CO)c2sc3ccccc3c(=O)c12` (stereo not given), the T/C (dose: 66.0 mg/kg/injection, schedule: Q01DX009 (ip), vehicle: saline with Tween-80) was 144 % of control.
Turning to `Clc1ccc2c(c1)C(Br)c1cc(Cl)cc(Cl)c1-2` (stereo not given), the survivor count by setting is: (dose: 100.0 mg/kg/injection, schedule: Q04DX003 (ip), vehicle: saline with Tween-80) 6 of 6; under setting [4], 5 of 6.
On to `CCOC(=O)/C(=C(/N)C1OC(COC(c2ccccc2)(c2ccccc2)c2ccccc2)C2OC(C)(C)OC12)C1CC(=O)N(C)C1=O` (stereo not given), for which, under setting [5], the survivor count is given as 6 of 6.
Turning to `Oc1ccc(C2N(c3ccccc3)CCN2c2ccccc2)cc1`, under setting [6], the survivor count is given as 0 of 6.
For the compound `Oc1ccc(F)c2cccnc12`, under “dose: 100.0 mg/kg/injection, schedule: Q01DX010 (ip), vehicle: carboxymethylcellulose (CMC)”, the survivor count is recorded as 1 of 6.
With `C=C1CCC2C1C1C(C(C)C)CCC21C` (stereo not given), the survivor count under setting [5] was 6 of 6.
With `CSc1nc(N)c2c(C(N)=O)cc(=O)[nH]c2n1`, the survivor count (dose: 400.0 mg/kg/injection, schedule: Q04DX002 (ip), vehicle: saline with Tween-80) is 6 of 6.
As to `CC1=CC(=O)C(C(C)C)=CC1=O`, the survivor count runs as follows: (dose: 12.5 mg/kg/injection, schedule: Q01DX009 (ip), vehicle: saline with Tween-80) 1 of 6; (dose: 25.0 mg/kg/injection, schedule: Q01DX009 (ip), vehicle: saline with Tween-80) 2 of 6; under setting [1], 0 of 6.
Regarding `CCN(CC)C(=O)c1ccncc1`, the survivor count under setting [3] is 2 of 6.
Turning to `C[N+](C)(CCc1ccccc1)CC(O)COc1ccccc1` (stereo not given), the survivor count (dose: 38.0 mg/kg/injection, schedule: Q01DX009 (ip), vehicle: Klucel (hydroxypropylcellulose) (HPC)) was 1 of 6.
Consider `COc1cc(C(=O)c2cocc2C(=O)c2ccc3c(c2)OCO3)cc(OC)c1OC`, for which the T/C by setting is: (dose: 200.0 mg/kg/injection, schedule: Q01DX010 (ip), vehicle: saline) 143 % of control; (dose: 400.0 mg/kg/injection, schedule: Q01DX010 (ip), vehicle: water) 144 % of control.
Consider `CCC1CC2CC(c3cc4c(cc3OC)N(C)C3C(O)(C(=O)OC)C(OC(C)=O)C5(CC)C=CCN6CCC43C65)c3[nH]c4ccccc4c3CCN(C1)C2` (stereo not given), for which the T/C is, setting by setting: (dose: 0.06 mg/kg/injection, schedule: Q01DX009 (ip), vehicle: water) 127 % of control; (dose: 0.12 mg/kg/injection, schedule: Q01DX009 (ip), vehicle: water) 131 % of control; (dose: 1.0 mg/kg/injection, schedule: Q04DX003 (ip), vehicle: water) 131 % of control; (dose: 4.0 mg/kg/injection, schedule: Q04DX003 (ip), vehicle: water) 140 % of control.
As for `COC(=O)N(CCCl)N=O`, where the note is “dose: 20.0 mg/kg/injection, schedule: Q01DX001 (ip), vehicle: saline with Tween-80”, the survivor count was 5 of 6.
`CC(Oc1ccccc1)C(=O)N=c1scc(-c2ccc(Br)cc2)n1-c1cccc2ccccc12` (stereo not given): the T/C (dose: 25.0 mg/kg/injection, schedule: Q01DX009 (ip), vehicle: gum acacia) is 132 % of control.
For the compound `CCCC1CCC(=C2C(=O)CCC2=O)O1` (stereo not given), for the setting “dose: 100.0 mg/kg/injection, schedule: Q04DX002 (ip), vehicle: saline”, the T/C is 137 % of control.
With `COc1cc(NS(C)(=O)=O)ccc1Nc1c2ccc([N+](=O)[O-])cc2nc2c(C)c(C)ccc12`, the T/C (dose: 0.66 mg/kg/injection, schedule: Q04DX003 (ip), vehicle: saline with Tween-80) was 137 % of control.
On to `CCOC(=O)c1c(N)ssc1=S`, for which the survivor count (dose: 400.0 mg/kg/injection, schedule: Q01DX009 (ip), vehicle: saline) was 3 of 6; the survivor count under setting [3] was 4 of 6; the survivor count (dose: 600.0 mg/kg/injection, schedule: Q01DX009 (ip), vehicle: saline) was 0 of 6.
For the compound `CC(C)=CCC/C(C)=C\CCl`, the T/C by setting is: under setting [1], 125 % of control; (dose: 150.0 mg/kg/injection, schedule: Q01DX009 (ip), vehicle: saline with Tween-80) 128 % of control. Moreover, the survivor count is 2 of 6 under setting [5]; 6 of 6 (dose: 200.0 mg/kg/injection, schedule: Q04DX003 (ip), vehicle: saline with Tween-80); 4 of 6 under setting [6].
For `Cc1ccc(C)c2c1CCC2C` (stereo not given), the survivor count under setting [4] was 2 of 6.
In the case of `COc1cccc2c1C(=O)c1c(O)c3c(c(O)c1C2=O)C[C@@](O)(/C(C)=N\NC=O)C[C@@H]3OC1CC(N)C(O)C(C)O1` (stereo not given in full), the T/C is 126 % of control (dose: 4.0 mg/kg/injection, schedule: Q01DX009 (ip), vehicle: saline) and 126 % of control [5 of 6 alive] (dose: 8.0 mg/kg/injection, schedule: Q01DX009 (ip), vehicle: saline).
